Reference: the supplement of paper PMC6078165

Key:
[1] = tested on: HCC1143; test: relative JC-1 red fluorescence (viability) vs pre-drug, monoculture (fraction); higher = more viable cancer cells; conditions: coculture fibroblast: none (monoculture)
Procedure: (§1)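 JC-1 labelled TNBC cells grown in monoculture (density kept equal with unlabelled cancer cells) in 384-well plates in FluoroBrite medium, treated with one of 42 anticancer drugs at 0.1, 1, 10 or 100 uM. JC-1 red fluorescence (mitochondrial integrity, surrogate of apoptotic death) was read by plate reader every 8 h for 72 h. Values are normalised to each well's pre-drug value, with background from alamethicin. The stock of one drug was tenfold lower, so its dose labels may be too high. Monoculture values are repeated alongside each fibroblast plate and are averaged here.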

[2] = tested on: Hs578T; test: as above; conditions: coculture fibroblast: none (monoculture)
Procedure: as §1

CCCCCOC(=O)Nc1nc(=O)n([C@@H]2O[C@H](C)[C@@H](O)[C@H]2O)cc1F [Capecitabine]
relative JC-1 red fluorescence
Conditions | 8 h | 16 h | 24 h | 32 h | 40 h | 48 h | 56 h | 64 h | 72 h
[1], 0.1 µM | 0.892 | 0.758 | 0.66729 | 0.601 | 0.538 | 0.49 | 0.449 | 0.43 | 0.409
[1], 1 µM | 0.8741 | 0.802 | 0.733 | 0.669 | 0.626 | 0.581 | 0.56 | 0.536 | 0.522
[1], 10 µM | 0.912 | 0.822 | 0.746 | 0.682 | 0.626 | 0.578 | 0.544 | 0.515 | 0.489
[1], 100 µM | 0.948 | 0.768 | 0.839 | 0.837 | 0.805 | 0.767 | 0.741 | 0.717 | 0.685
[2], 0.1 µM | 0.824 | 0.7223 | 0.649 | 0.576 | 0.529 | 0.498 | 0.474 | 0.467 | 0.452
[2], 1 µM | 0.8525 | 0.7501 | 0.6367 | 0.5626 | 0.507 | 0.477 | 0.448 | 0.441 | 0.434
[2], 10 µM | 0.828 | 0.731 | 0.647 | 0.579 | 0.527 | 0.494 | 0.464 | 0.453 | 0.432
[2], 100 µM | 0.866 | 0.787 | 0.753 | 0.691 | 0.663 | 0.65 | 0.64 | 0.649 | 0.636

N.N.[Cl][Pt][Cl] [Cisplatin]
relative JC-1 red fluorescence
Conditions | 8 h | 16 h | 24 h | 32 h | 40 h | 48 h | 56 h | 64 h | 72 h
[1], 0.1 µM | 0.861 | 0.769 | 0.708 | 0.648 | 0.606 | 0.578 | 0.562 | 0.544 | 0.531
[1], 1 µM | 0.854 | 0.759 | 0.6969 | 0.6483 | 0.6048 | 0.578 | 0.559 | 0.547 | 0.533
[1], 10 µM | 0.862 | 0.775 | 0.717 | 0.664 | 0.629 | 0.593 | 0.57 | 0.561 | 0.554
[1], 100 µM | 0.746 | 0.57 | 0.4919 | 0.4189 | 0.383 | 0.359 | 0.344 | 0.329 | 0.323
[2], 0.1 µM | 0.8576 | 0.722 | 0.7017 | 0.6415 | 0.606 | 0.591 | 0.563 | 0.569 | 0.563
[2], 1 µM | 0.75 | 0.665 | 0.663 | 0.593 | 0.546 | 0.541 | 0.524 | 0.533 | 0.534
[2], 10 µM | 0.818 | 0.672 | 0.616 | 0.517 | 0.477 | 0.459 | 0.441 | 0.451 | 0.449
[2], 100 µM | 0.652 | 0.455 | 0.4896 | 0.4 | 0.358 | 0.352 | 0.339 | 0.342 | 0.339

C#Cc1cccc(Nc2ncnc3cc(OCCOC)c(OCCOC)cc23)c1 [Erlotinib]
relative JC-1 red fluorescence
Conditions | 8 h | 16 h | 24 h | 32 h | 40 h | 48 h | 56 h | 64 h | 72 h
[1], 0.1 µM | 0.881 | 0.811 | 0.743 | 0.681 | 0.637 | 0.611 | 0.589 | 0.571 | 0.558
[1], 1 µM | 0.882 | 0.803 | 0.763 | 0.717 | 0.673 | 0.637 | 0.612 | 0.602 | 0.578
[1], 10 µM | 0.9174 | 0.8685 | 0.8112 | 0.767 | 0.714 | 0.672 | 0.645 | 0.62 | 0.604
[1], 100 µM | 0.941 | 0.915 | 0.873 | 0.831 | 0.799 | 0.773 | 0.735 | 0.726 | 0.716
[2], 0.1 µM | 0.852 | 0.76 | 0.716 | 0.649 | 0.598 | 0.567 | 0.549 | 0.545 | 0.53
[2], 1 µM | 0.8568 | 0.748 | 0.734 | 0.676 | 0.653 | 0.638 | 0.62 | 0.624 | 0.62068
[2], 10 µM | 0.912 | 0.8907 | 0.801 | 0.8136 | 0.783 | 0.754 | 0.727 | 0.7001 | 0.6762
[2], 100 µM | 0.896 | 0.796 | 0.898 | 0.89 | 0.864 | 0.859 | 0.851 | 0.852 | 0.844

C[C@]12CC[C@@H]3c4ccc(O)cc4C[C@@H](CCCCCCCCC[S+]([O-])CCCC(F)(F)C(F)(F)F)[C@H]3[C@@H]1CC[C@@H]2O (stereo partly drawn) [Fulvestrant]
relative JC-1 red fluorescence
Conditions | 8 h | 16 h | 24 h | 32 h | 40 h | 48 h | 56 h | 64 h | 72 h
[1], 0.1 µM | 0.8912 | 0.8141 | 0.758 | 0.7118 | 0.6702 | 0.65 | 0.6282 | 0.622 | 0.615
[1], 1 µM | 0.901 | 0.806 | 0.758 | 0.712 | 0.666 | 0.634 | 0.607 | 0.588 | 0.563
[1], 10 µM | 0.955 | 0.935 | 0.905 | 0.876 | 0.862 | 0.835 | 0.835 | 0.831 | 0.833
[1], 100 µM | 0.9798 | 0.915 | 0.965 | 0.9312 | 0.909 | 0.875 | 0.866 | 0.885 | 0.888
[2], 0.1 µM | 0.8237 | 0.7318 | 0.668 | 0.633 | 0.607 | 0.585 | 0.568 | 0.569 | 0.562
[2], 1 µM | 0.81 | 0.682 | 0.651 | 0.579 | 0.541 | 0.524 | 0.496 | 0.493 | 0.48
[2], 10 µM | 0.973 | 0.931 | 0.841 | 0.838 | 0.803 | 0.78 | 0.759 | 0.751 | 0.734
[2], 100 µM | 0.869 | 0.95 | 0.881 | 0.852 | 0.819 | 0.807 | 0.801 | 0.8 | 0.793

The reference is the same well before dosing, and untreated signal decays as well.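 The cancer cells are triple-negative breast cancer lines of basal-like or mesenchymal-like type, grown without fibroblasts. A drop in red signal reflects loss of mitochondrial integrity, a stand-in for apoptotic death.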
